In article PMC8745574:
These are yes or no findings as the source states them, for the method shown. For some of these results: Binding seen in cells or lysates may run through a third protein. Some results given as binding are weak or reduced against the parent protein; the word gives no strength. For some of these results: Sequences can lack the tags named with a protein. Blank lines part the entries; values can stand above or below the binder they belong to.

Tests used:
[1] = target: T1, cYFP-RID (Arabidopsis protoplasts) (Arabidopsis thaliana) (UniProt Q9SPU7); test: split reporter; BiFC, pSAT1-nEYFP-C1/pSAT1-cEYFP-C1-B constructs in Arabidopsis protoplasts, confocal microscopy 16 h after transfection
T1 sequence: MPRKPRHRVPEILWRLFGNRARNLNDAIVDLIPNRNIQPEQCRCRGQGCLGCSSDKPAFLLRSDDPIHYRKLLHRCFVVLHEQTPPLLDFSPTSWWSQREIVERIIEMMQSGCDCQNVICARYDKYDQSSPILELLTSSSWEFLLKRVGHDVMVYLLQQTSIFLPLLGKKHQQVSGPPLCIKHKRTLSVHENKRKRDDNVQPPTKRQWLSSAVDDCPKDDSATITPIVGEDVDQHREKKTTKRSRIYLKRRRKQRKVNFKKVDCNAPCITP

[2] = target: T2, AtTERT Fw3NNLS construct (229-582 aa) (Arabidopsis thaliana) (UniProt Q9SPU7); test: two-hybrid; Matchmaker GAL4 system, pGADT7-DEST/pGBKT7-DEST, S. cerevisiae PJ69-4α, 30 °C; growth on -LWH plates (with increasing 3-aminotriazol) and -LWHAde plates
T2 sequence: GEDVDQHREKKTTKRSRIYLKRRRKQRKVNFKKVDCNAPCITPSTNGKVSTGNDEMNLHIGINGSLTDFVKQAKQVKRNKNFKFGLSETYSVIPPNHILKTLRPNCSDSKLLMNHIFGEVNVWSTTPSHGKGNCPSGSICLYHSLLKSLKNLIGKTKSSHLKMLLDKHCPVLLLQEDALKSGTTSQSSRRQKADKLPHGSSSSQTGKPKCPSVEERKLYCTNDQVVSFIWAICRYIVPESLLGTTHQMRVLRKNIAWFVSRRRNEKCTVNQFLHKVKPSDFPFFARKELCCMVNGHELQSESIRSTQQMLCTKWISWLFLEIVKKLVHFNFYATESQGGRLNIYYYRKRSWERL

[3] = target: T3, AtTERT RID construct (1-271 aa) (Arabidopsis thaliana) (UniProt Q9SPU7); test: as above
T3 sequence: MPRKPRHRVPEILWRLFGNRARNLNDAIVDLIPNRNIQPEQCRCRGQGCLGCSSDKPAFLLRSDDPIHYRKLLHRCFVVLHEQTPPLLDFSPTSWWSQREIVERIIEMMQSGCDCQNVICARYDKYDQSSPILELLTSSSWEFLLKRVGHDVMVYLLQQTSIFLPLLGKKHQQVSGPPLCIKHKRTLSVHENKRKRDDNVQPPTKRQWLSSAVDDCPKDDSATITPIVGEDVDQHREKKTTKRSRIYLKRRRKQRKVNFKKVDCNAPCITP

[4] = target: T4, c-myc-tagged TEN, in vitro translated (Arabidopsis thaliana) (UniProt Q9SPU7); test: co-IP; both proteins translated in vitro in rabbit reticulocyte lysate; 35S-Met labelled prey mixed with c-myc- or HA-tagged bait in 25 mM HEPES pH 7.5, 150 mM KCl, 5 mM MgCl2, 0.1% Nonidet P-40; anti-c-myc or anti-HA magnetic beads
T4 sequence: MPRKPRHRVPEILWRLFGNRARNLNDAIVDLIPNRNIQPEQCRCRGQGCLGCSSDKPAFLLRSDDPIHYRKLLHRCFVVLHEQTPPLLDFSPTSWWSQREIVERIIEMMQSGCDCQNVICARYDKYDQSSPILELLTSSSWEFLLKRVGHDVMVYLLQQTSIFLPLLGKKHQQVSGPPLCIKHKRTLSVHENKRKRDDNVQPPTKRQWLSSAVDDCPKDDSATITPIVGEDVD

[5] = target: T5, c-myc-tagged POT1a, in vitro translated (Arabidopsis thaliana) (UniProt Q56Y52); test: as above
T5 sequence: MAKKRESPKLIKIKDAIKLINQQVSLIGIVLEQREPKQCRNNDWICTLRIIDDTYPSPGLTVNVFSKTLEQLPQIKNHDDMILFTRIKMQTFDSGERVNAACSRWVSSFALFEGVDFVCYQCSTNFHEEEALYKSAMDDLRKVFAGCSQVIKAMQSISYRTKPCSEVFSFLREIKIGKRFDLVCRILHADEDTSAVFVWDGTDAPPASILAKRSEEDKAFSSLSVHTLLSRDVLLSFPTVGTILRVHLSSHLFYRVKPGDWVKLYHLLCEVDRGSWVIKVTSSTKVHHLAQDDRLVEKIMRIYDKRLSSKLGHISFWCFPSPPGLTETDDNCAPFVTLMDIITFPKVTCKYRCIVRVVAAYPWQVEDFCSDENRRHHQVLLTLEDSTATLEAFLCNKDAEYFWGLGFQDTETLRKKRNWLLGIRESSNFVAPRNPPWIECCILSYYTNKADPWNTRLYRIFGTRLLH

[6] = target: T6, cYFP-POT1a (N. benthamiana) (Arabidopsis thaliana) (UniProt Q56Y52); test: split reporter; BiFC, nYFP/cYFP constructs (pE-SPYNE-GW, pE-SPYCE-GW, pC-SPYNE-GW) transiently expressed in N. benthamiana leaves, confocal microscopy after 3 days
T6 sequence: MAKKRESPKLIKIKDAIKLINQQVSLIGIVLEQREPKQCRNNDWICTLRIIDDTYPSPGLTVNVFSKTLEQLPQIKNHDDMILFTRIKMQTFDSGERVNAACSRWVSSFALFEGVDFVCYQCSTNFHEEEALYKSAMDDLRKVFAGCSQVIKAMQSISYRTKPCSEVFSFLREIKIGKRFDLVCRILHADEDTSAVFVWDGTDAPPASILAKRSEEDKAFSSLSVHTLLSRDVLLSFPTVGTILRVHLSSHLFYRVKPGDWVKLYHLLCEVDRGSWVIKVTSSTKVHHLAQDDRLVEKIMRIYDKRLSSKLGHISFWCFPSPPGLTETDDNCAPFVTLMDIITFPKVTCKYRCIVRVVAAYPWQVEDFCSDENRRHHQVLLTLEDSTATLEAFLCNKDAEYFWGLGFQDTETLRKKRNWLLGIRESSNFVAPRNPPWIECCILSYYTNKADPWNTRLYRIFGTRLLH

[7] = target: T7, cYFP-RID (N. benthamiana) (Arabidopsis thaliana) (UniProt Q9SPU7); test: as above
T7 sequence: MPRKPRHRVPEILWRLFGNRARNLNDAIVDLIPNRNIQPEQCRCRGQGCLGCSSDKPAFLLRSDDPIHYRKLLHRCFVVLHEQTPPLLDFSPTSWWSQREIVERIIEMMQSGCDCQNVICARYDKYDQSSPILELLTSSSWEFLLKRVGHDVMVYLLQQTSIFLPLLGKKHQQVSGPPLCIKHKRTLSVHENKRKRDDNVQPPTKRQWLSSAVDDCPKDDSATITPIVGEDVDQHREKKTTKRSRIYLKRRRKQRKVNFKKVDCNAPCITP

binding [1]: binds
B1: FIB2 nYFP construct (protoplasts) (protein, UniProt Q94AH9 1-320)
chain: MRPPLTGSGGGFSGGRGRGGYSGGRGDGGFSGGRGGGGRGGGRGFSDRGGRGRGRGPPRGGARGGRGPAGRGGMKGGSKVIVEPHRHAGVFIAKGKEDALVTKNLVPGEAVYNEKRISVQNEDGTKTEYRVWNPFRSKLAAAILGGVDNIWIKPGAKVLYLGAASGTTVSHVSDLVGPEGCVYAVEFSHRSGRDLVNMAKKRTNVIPIIEDARHPAKYRMLVGMVDVIFSDVAQPDQARILALNASYFLKSGGHFVISIKANCIDSTVPAEAVFQTEVKKLQQEQFKPAEQVTLEPFERDHACVVGGYRMPKKPKAATAA

binding [2]: binds weakly
binding [3]: binds
B2: FIB2 (protein, UniProt Q94AH9 1-320)
chain: MRPPLTGSGGGFSGGRGRGGYSGGRGDGGFSGGRGGGGRGGGRGFSDRGGRGRGRGPPRGGARGGRGPAGRGGMKGGSKVIVEPHRHAGVFIAKGKEDALVTKNLVPGEAVYNEKRISVQNEDGTKTEYRVWNPFRSKLAAAILGGVDNIWIKPGAKVLYLGAASGTTVSHVSDLVGPEGCVYAVEFSHRSGRDLVNMAKKRTNVIPIIEDARHPAKYRMLVGMVDVIFSDVAQPDQARILALNASYFLKSGGHFVISIKANCIDSTVPAEAVFQTEVKKLQQEQFKPAEQVTLEPFERDHACVVGGYRMPKKPKAATAA

binding [4]: binds
B3: MCM5, full length, radioactively labelled, in vitro translated (protein, UniProt O80786 1-727)
chain: MSGWDEGAVYYSDQPQFPEAGDAATISPHAVLTKFKEFIRNFEIEQNCFPYREALLDNPKRLVVHLEDLLSFDSDLPSLIRSAPADYLPVFEKAAGEVLTGLKMREANEGGVMEEPLTRDVQILLTSREDPVSMRLLGAQYISKLVKISGISIAASRVKAKATYVFLVCKNCKKTREVPCRPGLGGAIVPRSCDNIPQPGEEPCPLDPWMVVPDRSQYVDQQTLKLQENPEDVPTGELPRNMLLSVDRHLVQTIVPGTRLTVMGIYSIFQASSSSNSHKGAVAIRQPYIRVVGLEDTNEASSRGPANFTPDEEEEFKKFADSQDVYKNICTKIAPSIFGHEDVKRAAACLLFGGSRKSLPDGVKLRGDINVLLLGDPSTAKSQFLKFVEKTAPIAVYTSGKGSSAAGLTASVIRDSSTREFYLEGGAMVLADGGVVCIDEFDKMRPEDRVAIHEAMEQQTISIAKAGITTVLNSRTSVLAAANPPSGRYDDLKTAQDNIDLQTTILSRFDLIFIVKDIRKYSQDKEIASHIIRVHASANKFSDENTDSKEDNWLKRYIQYCRARCHPRLSKDAAENLQRKYVTIRMDMKRRAHETGEAAPIPITVRQLEAIVRLSESLAKMRLSHEATPDDVDKAFKLFDTSTMDAARSGINQQINITGEMANEIKQAETQIKRRMGIGARLSERRLIEDLARMGMNDSMVRRALLIMHQRGEVEYQRERRSIVRKA
modifications: 35S-Met labelled

binding [5]: binds
B4: MCM7, full length, radioactively labelled, in vitro translated (protein, UniProt P43299 1-716)
chain: MKDHDFDGDKGLAKGFLENFADANGRSKYMEILQEVSNRKIRAIQVDLDDLFNYKDESEEFLGRLTENTRRYVSIFSAAVDELLPEPTEAFPDDDHDILMTQRADDGTDNPDVSDPHQQIPSEIKRYYEVYFKAPSKGRPSTIREVKASHIGQLVRISGIVTRCSDVKPLMAVAVYTCEDCGHEIYQEVTSRVFMPLFKCPSSRCRLNSKAGNPILQLRASKFLKFQEAKMQELAEHVPKGHIPRSMTVHLRGELTRKVSPGDVVEFSGIFLPIPYTGFKALRAGLVADTYLEATSVTHFKKKYEEYEFQKDEEEQIARLAEDGDIYNKLSRSLAPEIYGHEDIKKALLLLLVGAPHRQLKDGMKIRGDVHICLMGDPGVAKSQLLKHIINVAPRGVYTTGKGSSGVGLTAAVMRDQVTNEMVLEGGALVLADMGICAIDEFDKMDESDRTAIHEVMEQQTVSIAKAGITTSLNARTAVLAAANPAWGRYDLRRTPAENINLPPALLSRFDLLWLILDRADMDSDLELAKHVLHVHQTEESPALGFEPLEPNILRAYISAARRLSPYVPAELEEYIATAYSSIRQEEAKSNTPHSYTTVRTLLSILRISAALARLRFSESVAQSDVDEALRLMQMSKISLYADDRQKAGLDAISDTYSIIRDEAARSKKTHVSYANALNWISRKGYSEAQLKECLEEYAALNVWQIDPHTFDIRFI
modifications: 35S-Met labelled

binding [1]: binds weakly
B5: LSm4 BiFC construct (protoplasts) (protein, UniProt F4K4E3 1-129)
chain: MLPLSLLKTAQGHPMLVELKNGETYNGHLVNCDTWMNIHLREVICTSKDGDRFWRMPECYIRGNTIKYLRVPDEVIDKVQEEKTRTDRKPPGVGRGRGRGVDDGGARGRGRGTSMGKMGGNRGAGRGRG

binding [2]: binds weakly
binding [3]: binds weakly
B6: LSm4 (LIKE Sm 4) (protein, UniProt F4K4E3 1-129)
chain: MLPLSLLKTAQGHPMLVELKNGETYNGHLVNCDTWMNIHLREVICTSKDGDRFWRMPECYIRGNTIKYLRVPDEVIDKVQEEKTRTDRKPPGVGRGRGRGVDDGGARGRGRGTSMGKMGGNRGAGRGRG

binding [6]: binds
binding [7]: binds
B7: HSP90-7 BiFC construct (protein, UniProt Q9STX5 24-823)
chain: RKLHANAEESSDDVTDPPKVEEKIGGHGGLSTDSDVVHRESESMSKKTLRSNAEKFEFQAEVSRLMDIIINSLYSNKDIFLRELISNASDALDKIRFLALTDKDVLGEGDTAKLEIQIKLDKAKKILSIRDRGIGMTKEDLIKNLGTIAKSGTSAFVEKMQSSGDLNLIGQFGVGFYSAYLVADYIEVISKHNDDSQYVWESKANGKFAVSEDTWNEPLGRGTEIRLHLRDEAGEYLEESKLKELVKRYSEFINFPISLWASKEVETEVPVEEDESADEETETTSTEEEKEEDAEEEDGEKKQKTKKVKETVYEWELLNDVKAIWLRSPKEVTEEEYTKFYHSLSKDFTDEKPMAWSHFNAEGDVEFKAVLYVPPKAPHDLYESYYNSNKANLKLYVRRVFISDEFDELLPKYLSFLKGLVDSDTLPLNVSREMLQQHSSLKTIKKKLIRKALDMIRKLAEEDPDEIHDDEKKDVEKSGENDEKKGQYTKFWNEFGKSVKLGIIEDAANRNRLAKLLRFETTKSDGKLTSLDQYIKRMKKSQKDIFYITGSSKEQLEKSPFLERLIKKGYEVIFFTDPVDEYLMQYLMDYEDKKFQNVSKEGLKVGKDSKDKELKEAFKELTKWWKGNLASENVDDVKISNRLADTPCVVVTSKFGWSANMERIMQSQTLSDANKQAYMRGKRVLEINPRHPIIKELKDRIASDPEDESVKETAQLMYQTALIESGFILTDPKDFAARIYNSVKSGLNISPDAVADEEIEAAEEPETSEATETKSDDLAGGLNIEAEPVEQQEENTKDEL
